The text below walks through data of PMC6386500, “Structural insights into the inhibition properties of archaeon citrate synthase from Metallosphaera sedula” (PLoS ONE, 2019).

Protein sequences, listed by entry. Tags and fused reporters are not part of them.
UniProt A4YGX6, entry or part of it: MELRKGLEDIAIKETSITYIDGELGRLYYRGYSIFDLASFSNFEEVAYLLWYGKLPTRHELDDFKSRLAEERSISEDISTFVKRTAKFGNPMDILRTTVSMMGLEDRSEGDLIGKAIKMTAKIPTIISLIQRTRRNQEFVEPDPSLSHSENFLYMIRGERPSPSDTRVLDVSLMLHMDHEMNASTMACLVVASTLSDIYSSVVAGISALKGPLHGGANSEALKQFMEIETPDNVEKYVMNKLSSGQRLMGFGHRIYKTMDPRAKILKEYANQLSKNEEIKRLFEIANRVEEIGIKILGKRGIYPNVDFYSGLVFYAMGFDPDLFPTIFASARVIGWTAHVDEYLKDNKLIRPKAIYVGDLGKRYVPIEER

One may read the pKi as the Ki on a negative log10 scale, so that one unit is a factor of ten.

The assay deals with T1, MsCS (citrate synthase from Metallosphaera sedula) (Metallosphaera sedula, UniProt A4YGX6).
T1 construct: gene Msed_1522; C-terminal 6xHis tag (pET-30a, NdeI/XhoI), E. coli BL21(DE3)-T1R; homodimer about 85 kDa; modelled domains Met1-Arg370; printed peptide PLHGGANSE (212-221 as printed); His214, His253, Asp307 catalytic
Description: DTNB absorbance at […] nm, inhibition kinetics. The class given is biochemical.

pKi: −log10 of the molar value.

As for `O=C(O)CC(O)(CC(=O)O)C(=O)O` [citrate], the pKi was 2.14.
